PubChem BioAssay AID1224829, NIAID – 2016

Test: 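Follow-up of TLR4-NF-kappaB regulators using six separate siRNAs for each gene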 (follow-up of hits)
Cell system: mouse RAW264.7 G9 macrophage reporter cells
Knock-down reagent: single siRNA against mouse genes, 100 nM
Duration: 2 days of siRNA knock-down, then 40 min of LPS before fixing
Challenge: LPS (Salmonella minnesota R595) at 10 ng/ml
Detection: 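High-content images after 40 min LPS exposure; GFP-p65 nucleus to surrounding ring signal ratio, normalised to plate median and non-targeting control wells, expressed as z-score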
Direction: p65 translocation z-score: higher = more nuclear NF-kappaB p65 after LPS
Rule for the call: 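Active means the replicate-mean z-score lies beyond plus or minus 2, in either direction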
Calls: active = changed p65 translocation (either direction); inactive = no clear change
The deposit covers about 3,800 reagents; shown is an unselected part. 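Calls cover raised and lowered translocation; gene median uses one vendor's three siRNAs; qiagen siRNAs acted more weakly than ambion siRNAs.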 Reagents against one gene are numbered here. Not all columns of the deposit are shown.

| p65 translocation z-score, replicate mean | p65 translocation z-score, replicate 1 | p65 translocation z-score, replicate 2 | Call | Target gene | siRNA no. | siRNA vendor or control pool |
| --- | --- | --- | --- | --- | --- | --- |
| -1.36 | -1.73 | -0.986 | inactive | Zfp747 (zinc finger protein 747) | 1 | ambion single siRNA |
| -2.44 | -2.27 | -2.62 | active | Zfp747 (zinc finger protein 747) | 2 | ambion single siRNA |
| -4.93 | -4.3 | -5.57 | active | Zfp747 (zinc finger protein 747) | 3 | ambion single siRNA |
| 2.49 | 3.03 | 1.95 | active | Zfp747 (zinc finger protein 747) | 4 | qiagen single siRNA |
| 0.418 | -0.938 | 1.78 | inactive | Zfp747 (zinc finger protein 747) | 5 | qiagen single siRNA |
| 0.833 | 0.399 | 1.27 | inactive | Zfp747 (zinc finger protein 747) | 6 | qiagen single siRNA |
| -2.85 | -3.55 | -2.16 | active | Itpr1 (inositol 1,4,5-trisphosphate receptor 1) | 1 | ambion single siRNA |
| -0.475 | -0.206 | -0.744 | inactive | Itpr1 (inositol 1,4,5-trisphosphate receptor 1) | 2 | ambion single siRNA |
| -2.75 | -2.53 | -2.97 | active | Itpr1 (inositol 1,4,5-trisphosphate receptor 1) | 3 | ambion single siRNA |
| 1.54 | -0.548 | 3.63 | inactive | Itpr1 (inositol 1,4,5-trisphosphate receptor 1) | 4 | qiagen single siRNA |
| -3.48 | -3.48 | – | active | Itpr1 (inositol 1,4,5-trisphosphate receptor 1) | 5 | qiagen single siRNA |
| -3.57 | -2.41 | -4.72 | active | Itpr1 (inositol 1,4,5-trisphosphate receptor 1) | 6 | qiagen single siRNA |
| 1.99 | 2.51 | 1.48 | inactive | Rag1 (recombination activating 1) | 1 | ambion single siRNA |
| 1.78 | 2.13 | 1.43 | inactive | Rag1 (recombination activating 1) | 2 | ambion single siRNA |
| -1.61 | -0.353 | -2.87 | inactive | Rag1 (recombination activating 1) | 3 | ambion single siRNA |
| 2.31 | 1.73 | 2.89 | active | Rag1 (recombination activating 1) | 4 | qiagen single siRNA |
| 2.1 | 0.119 | 4.08 | active | Rag1 (recombination activating 1) | 5 | qiagen single siRNA |
| 0.761 | 0.585 | 0.938 | inactive | Rag1 (recombination activating 1) | 6 | qiagen single siRNA |
| 1.82 | 2.14 | 1.5 | inactive | Tnfrsf8 (tumor necrosis factor receptor superfamily, member 8) | 1 | ambion single siRNA |
| -0.571 | -0.38 | -0.762 | inactive | Tnfrsf8 (tumor necrosis factor receptor superfamily, member 8) | 2 | ambion single siRNA |
| -3.75 | -3.4 | -4.11 | active | Tnfrsf8 (tumor necrosis factor receptor superfamily, member 8) | 3 | ambion single siRNA |
| 0.336 | 0.521 | 0.151 | inactive | Tnfrsf8 (tumor necrosis factor receptor superfamily, member 8) | 4 | qiagen single siRNA |
| -2.18 | -1 | -3.37 | active | Tnfrsf8 (tumor necrosis factor receptor superfamily, member 8) | 5 | qiagen single siRNA |
| -3.76 | -3.19 | -4.33 | active | Tnfrsf8 (tumor necrosis factor receptor superfamily, member 8) | 6 | qiagen single siRNA |
| 1.44 | 1.68 | 1.19 | inactive | Nat2 (N-acetyltransferase 2 (arylamine N-acetyltransferase)) | 1 | ambion single siRNA |
| -4.34 | -4.93 | -3.74 | active | Nat2 (N-acetyltransferase 2 (arylamine N-acetyltransferase)) | 2 | ambion single siRNA |
| -4.41 | -5.39 | -3.42 | active | Nat2 (N-acetyltransferase 2 (arylamine N-acetyltransferase)) | 3 | ambion single siRNA |
| 0.579 | 0.425 | 0.733 | inactive | Nat2 (N-acetyltransferase 2 (arylamine N-acetyltransferase)) | 4 | qiagen single siRNA |
| 1.37 | -0.771 | 3.51 | inactive | Nat2 (N-acetyltransferase 2 (arylamine N-acetyltransferase)) | 5 | qiagen single siRNA |
| 2.02 | 2.35 | 1.69 | active | Nat2 (N-acetyltransferase 2 (arylamine N-acetyltransferase)) | 6 | qiagen single siRNA |
| -1.58 | -1.05 | -2.11 | inactive | Actg1 (actin, gamma, cytoplasmic 1) | 1 | ambion single siRNA |
| -3.46 | -3.2 | -3.71 | active | Actg1 (actin, gamma, cytoplasmic 1) | 2 | ambion single siRNA |
| -4.86 | -5.65 | -4.07 | active | Actg1 (actin, gamma, cytoplasmic 1) | 3 | ambion single siRNA |
| 0.475 | -0.061 | 1.01 | inactive | Actg1 (actin, gamma, cytoplasmic 1) | 4 | qiagen single siRNA |
| -2.22 | -1.54 | -2.91 | active | Actg1 (actin, gamma, cytoplasmic 1) | 5 | qiagen single siRNA |
| -3.86 | -3.03 | -4.7 | active | Actg1 (actin, gamma, cytoplasmic 1) | 6 | qiagen single siRNA |

Single entries from above:
Result of Itpr1 (inositol 1,4,5-trisphosphate receptor 1) #1, siRNA vendor or control pool ambion single siRNA in “p65 translocation z-score, replicate mean”: -2.85
Actg1 (actin, gamma, cytoplasmic 1) #2, siRNA vendor or control pool ambion single siRNA, p65 translocation z-score, replicate 1 = -3.2
For “Call”, Nat2 (N-acetyltransferase 2 (arylamine N-acetyltransferase)) #2, siRNA vendor or control pool ambion single siRNA reads active
For “Call”, Actg1 (actin, gamma, cytoplasmic 1) #6, siRNA vendor or control pool qiagen single siRNA shows active
Value of Nat2 (N-acetyltransferase 2 (arylamine N-acetyltransferase)) #4, siRNA vendor or control pool qiagen single siRNA under “p65 translocation z-score, replicate 2”: 0.733
